Data as given in PubChem BioAssay AID743121 (NCATS, 2013)
Assay: 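Genes whose silencing strengthens cell killing by camptothecin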 (primary screen). System: MDA-MB-231 cells, a human breast cancer line. Reagent: single siRNA against human genes, 20 nM siRNA (0.8 pmol per well). Time to read-out: 120 h (drug added 48 h after transfection, read 72 h later). Treatment: camptothecin 20 nM (about EC30) for 72 h; vehicle 0.1% DMSO in parallel plates. Read-out: 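Cell viability by ATP luminescence (CellTiter-Glo) as % of non-targeting siRNA wells, and the log2 ratio of viability without drug over viability with camptothecin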. Direction: log2 vehicle/camptothecin viability: higher = stronger sensitisation to camptothecin; viability with camptothecin: higher = more viable cells. Units: viability with camptothecin in % of control. Active means: 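Active genes have an RSA gene-level p-value below 0.001, computed from the ratios of their separate siRNAs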.
The whole screen tested about 26,000 reagents; shown is an unselected part. Over the whole deposit, 167 (0.63%) are marked active. 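Calls are per gene from RSA p-values that are not deposited; an individual active-marked siRNA can sensitise only weakly.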 Further read-outs or replicates are left out here. Reagent sequences are not shown.

PRH1 (proline rich protein HaeIII subfamily 1) [SID164382429]
- log2 vehicle/camptothecin viability: -0.173
- viability with camptothecin: 60
- call: inactive

PRH1 (proline rich protein HaeIII subfamily 1) [SID164382430]
- log2 vehicle/camptothecin viability: -0.287
- viability with camptothecin: 98
- call: inactive

PRH1 (proline rich protein HaeIII subfamily 1) [SID164382433]
- log2 vehicle/camptothecin viability: -0.511
- viability with camptothecin: 68.1
- call: inactive

TRIM64 (tripartite motif containing 64) [SID164565947]
- log2 vehicle/camptothecin viability: 0.373
- viability with camptothecin: 17.6
- call: inactive

G6PC3 (glucose-6-phosphatase catalytic subunit 3) [SID164551980]
- log2 vehicle/camptothecin viability: -0.267
- viability with camptothecin: 62.1
- call: inactive

G6PC3 (glucose-6-phosphatase catalytic subunit 3) [SID164551981]
- log2 vehicle/camptothecin viability: -0.125
- viability with camptothecin: 69.4
- call: inactive

G6PC3 (glucose-6-phosphatase catalytic subunit 3) [SID164551982]
- log2 vehicle/camptothecin viability: -0.714
- viability with camptothecin: 69.1
- call: inactive

G6PC3 (glucose-6-phosphatase catalytic subunit 3) [SID164551983]
- log2 vehicle/camptothecin viability: -0.204
- viability with camptothecin: 5.92
- call: inactive

Part of the list above in another layout.
| gene knocked down | PubChem SID | log2 vehicle/camptothecin viability | viability with camptothecin | call |
| --- | --- | --- | --- | --- |
| G6PC3 (glucose-6-phosphatase catalytic subunit 3) | SID164551982 | -0.714 | 69.1 | inactive |
| G6PC3 (glucose-6-phosphatase catalytic subunit 3) | SID164551983 | -0.204 | 5.92 | inactive |

Continued.
CATSPER4 (cation channel sperm associated 4) [SID164673808]
- log2 vehicle/camptothecin viability: 0.00914
- viability with camptothecin: 82.6
- call: inactive

CATSPER4 (cation channel sperm associated 4) [SID164673809]
- log2 vehicle/camptothecin viability: 0.112
- viability with camptothecin: 84.9
- call: inactive

CATSPER4 (cation channel sperm associated 4) [SID164673810]
- log2 vehicle/camptothecin viability: -0.186
- viability with camptothecin: 110
- call: inactive

ORM1 (orosomucoid 1) [SID164379064]
- log2 vehicle/camptothecin viability: 0.029
- viability with camptothecin: 25.9
- call: inactive

ORM1 (orosomucoid 1) [SID164379067]
- log2 vehicle/camptothecin viability: 1.33
- viability with camptothecin: 11.1
- call: inactive

ORM1 (orosomucoid 1) [SID164379069]
- log2 vehicle/camptothecin viability: -0.72
- viability with camptothecin: 99.3
- call: inactive

ORM1 (orosomucoid 1) [SID164379070]
- log2 vehicle/camptothecin viability: -0.146
- viability with camptothecin: 77.2
- call: inactive
